Measurements reported in paper PMC10313721.
No constants are given. Whether binding was seen depends on the method and setting. For some of these results: In cells and extracts the contact can be indirect. Some entries that bind do so weakly or less than the wild type. For some of these results: Sequences can lack the tags named with a protein.

Chains of the proteins cited; added tags and fusions are not shown. Residues count along the entry.
UniProt P17931: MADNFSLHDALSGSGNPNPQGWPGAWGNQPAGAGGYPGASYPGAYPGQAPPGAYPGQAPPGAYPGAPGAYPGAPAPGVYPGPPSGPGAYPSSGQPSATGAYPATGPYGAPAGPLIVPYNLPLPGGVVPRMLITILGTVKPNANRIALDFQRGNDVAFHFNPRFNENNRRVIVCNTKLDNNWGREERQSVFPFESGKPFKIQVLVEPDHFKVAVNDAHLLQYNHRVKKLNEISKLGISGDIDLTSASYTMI
UniProt P01579, residues 24-161: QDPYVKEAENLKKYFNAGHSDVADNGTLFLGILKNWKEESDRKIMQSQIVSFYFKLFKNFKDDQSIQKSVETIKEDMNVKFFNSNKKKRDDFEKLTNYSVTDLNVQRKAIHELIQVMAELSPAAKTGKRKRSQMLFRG

Experiments:
Flag-RNF8 (human) = biological target: T1, Flag-RNF8 (human) (UniProt O76064); experiment: co-IP; Flag-RNF8 and HA-gal-3 over-expressed in 293 T and A375 cells; lysates in IP binding buffer, protein A/G magnetic beads and antibody, 4 h at 4 °C, western blot
T1 sequence: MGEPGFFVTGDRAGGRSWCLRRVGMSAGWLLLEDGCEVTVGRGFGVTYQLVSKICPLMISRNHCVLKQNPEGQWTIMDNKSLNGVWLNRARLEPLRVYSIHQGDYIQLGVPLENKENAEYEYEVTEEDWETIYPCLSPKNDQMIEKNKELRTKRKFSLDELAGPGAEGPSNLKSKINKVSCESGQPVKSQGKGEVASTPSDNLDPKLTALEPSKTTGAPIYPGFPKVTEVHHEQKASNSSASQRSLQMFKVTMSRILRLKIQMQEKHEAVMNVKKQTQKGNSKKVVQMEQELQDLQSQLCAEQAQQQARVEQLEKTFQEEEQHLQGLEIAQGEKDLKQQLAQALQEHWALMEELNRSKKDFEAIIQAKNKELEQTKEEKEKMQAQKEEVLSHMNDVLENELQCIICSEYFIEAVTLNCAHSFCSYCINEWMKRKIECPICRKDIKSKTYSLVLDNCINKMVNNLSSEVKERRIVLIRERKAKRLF

[1] = biological target: recombinant human gal-3 (human) (UniProt P17931); experiment: pull-down; as a1, but gal-3-coated beads and cytokine incubated in the presence of 100 mM lactose or 50 mM LacNAc (LAC); cytokine in the supernatant measured by ELISA; both purified
[2] = biological target: recombinant human gal-3 (human) (UniProt P17931); experiment: pull-down; Dynabeads M-280 Streptavidin coated with saturating amounts of gal-3; different amounts of beads incubated with the cytokine in PBS for 1 h at room temperature; after magnetic sorting the cytokine left in the supernatant measured by ELISA; both purified
[3] = biological target: T2, endogenous RNF8 (human (endogenous in 293 T and A375)) (UniProt O76064); experiment: co-IP; endogenous proteins; 293 T and A375 lysates in IP binding buffer, protein A/G magnetic beads and antibody, 4 h at 4 °C, western blot
T2 sequence: T1 sequence

**Q.** Which binding (Flag-RNF8 (human)) does the source give for HA-gal-3 (from UniProt P17931 1-250) here?
**A.** binds

**Q.** Which results are given for IFN-γ (from UniProt P01579 24-161)?
**A.** binding [1]: no binding (condition: with 100 mM lactose or 50 mM LAC); binding [2]: binds

**Q.** With “endogenous gal-3 (from UniProt P17931 1-250)” as the substance, how does the binding [3] read?
**A.** binds
